The text below walks through data of PMC12574120.

The target in assay [1] is T1, recombinant Mycoplasma bovis chaperone GrpE (Mycoplasma bovis) (UniProt A1KFH3).
T1 sequence: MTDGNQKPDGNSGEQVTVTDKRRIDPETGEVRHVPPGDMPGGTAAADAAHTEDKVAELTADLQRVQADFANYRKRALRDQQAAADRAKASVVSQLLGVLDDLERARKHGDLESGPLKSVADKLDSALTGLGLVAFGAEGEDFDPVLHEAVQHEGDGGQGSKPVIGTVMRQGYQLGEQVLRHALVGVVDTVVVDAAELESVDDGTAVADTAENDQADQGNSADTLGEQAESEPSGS
Description: far-Western, overlay or dot blot; twofold-diluted rGrpE spotted on nitrocellulose, blocked, incubated overnight at 4 °C with 10 μg of the host protein in solution; bound host protein detected with its antibody (1:500) and HRP secondary antibody, ECL; both purified.

The target of another assay is vitronectin. Description: ELISA; 100 ng of ECM protein coated on 96-well plates; rGrpE added at 800 ng to 3.125 ng; OD at 450 nm; both purified.

No constants are given. Whether binding was seen depends on the method and setting. Binding calls can cover weak binding; strength is not graded here. Where a sequence is shown, tags or fusion partners need not be part of it.

For plasminogen, in assay [1], the binding entry is on record as “binds”.

For “tissue-type plasminogen activator (enzyme)”, the binding entry in assay [1] was “binds”.

In the case of vitronectin, the binding result in assay [1] was “binds”.

B1: recombinant Mycoplasma bovis chaperone GrpE (protein, UniProt A1KFH3 1-235)
chain: T1 sequence
In the case of B1, in the assay with vitronectin, the binding result is on record as “binds”.
